At least one compound was matched to its structure with a doubt left.
Assay: Stability test of Crystalline Form A (XRD and DSC, Day 0 / Day 10)
Type: physicochemical
Conditions: within 10 days
Experimental: Sample and experimental preparation: the Crystalline Form A as prepared in Example 2 was taken as a sample; a proper amount of the sample was weighted and placed on a watch glass to form a thin layer of about 3˜5 mm in thickness.
Experimental conditions: conventional (sealed and kept in darkness at 25° C.), long-term (uncovered and kept in darkness with −60% RH at 25° C.), and accelerated (uncovered and kept in darkness with −75% RH at 40° C.) conditions.
Detection time: Day 0, Day 10.
Detected items: crystalline forms (XRD test), and melting points (DSC test).

Structure (SMILES): [2H]C([2H])(CCS(=O)(=O)O)NC(=O)[C@@H](N)C(C)C [Crystalline Form A, 3-((L-valyl)amino)-3,3-dideuterium-1-propanesulfonic acid]
- variation of melting point (DSC test) (accelerated: uncovered, kept in darkness with −75% RH at 40° C.): ±1 °C
- variation of melting point (DSC test) (long-term: uncovered, kept in darkness with −60% RH at 25° C.): ±1 °C

Reference: patent publication US11186543B2, “Crystalline form of 3-((L-valyl)amino))-3,3-dideuterium-1-propanesulfonic acid, preparation method and uses thereof” (RISEN (SUZHOU) PHARMA TECH CO., LTD., priority 2018, dated 2021)
